The source of these data is US20110286916A1.

The chains behind the UniProt entries cited, without tags or fusion partners. Where a name states a change or a piece, a line headed by the entry shows the natural chain unless it says otherwise.
UniProt Q9UM47: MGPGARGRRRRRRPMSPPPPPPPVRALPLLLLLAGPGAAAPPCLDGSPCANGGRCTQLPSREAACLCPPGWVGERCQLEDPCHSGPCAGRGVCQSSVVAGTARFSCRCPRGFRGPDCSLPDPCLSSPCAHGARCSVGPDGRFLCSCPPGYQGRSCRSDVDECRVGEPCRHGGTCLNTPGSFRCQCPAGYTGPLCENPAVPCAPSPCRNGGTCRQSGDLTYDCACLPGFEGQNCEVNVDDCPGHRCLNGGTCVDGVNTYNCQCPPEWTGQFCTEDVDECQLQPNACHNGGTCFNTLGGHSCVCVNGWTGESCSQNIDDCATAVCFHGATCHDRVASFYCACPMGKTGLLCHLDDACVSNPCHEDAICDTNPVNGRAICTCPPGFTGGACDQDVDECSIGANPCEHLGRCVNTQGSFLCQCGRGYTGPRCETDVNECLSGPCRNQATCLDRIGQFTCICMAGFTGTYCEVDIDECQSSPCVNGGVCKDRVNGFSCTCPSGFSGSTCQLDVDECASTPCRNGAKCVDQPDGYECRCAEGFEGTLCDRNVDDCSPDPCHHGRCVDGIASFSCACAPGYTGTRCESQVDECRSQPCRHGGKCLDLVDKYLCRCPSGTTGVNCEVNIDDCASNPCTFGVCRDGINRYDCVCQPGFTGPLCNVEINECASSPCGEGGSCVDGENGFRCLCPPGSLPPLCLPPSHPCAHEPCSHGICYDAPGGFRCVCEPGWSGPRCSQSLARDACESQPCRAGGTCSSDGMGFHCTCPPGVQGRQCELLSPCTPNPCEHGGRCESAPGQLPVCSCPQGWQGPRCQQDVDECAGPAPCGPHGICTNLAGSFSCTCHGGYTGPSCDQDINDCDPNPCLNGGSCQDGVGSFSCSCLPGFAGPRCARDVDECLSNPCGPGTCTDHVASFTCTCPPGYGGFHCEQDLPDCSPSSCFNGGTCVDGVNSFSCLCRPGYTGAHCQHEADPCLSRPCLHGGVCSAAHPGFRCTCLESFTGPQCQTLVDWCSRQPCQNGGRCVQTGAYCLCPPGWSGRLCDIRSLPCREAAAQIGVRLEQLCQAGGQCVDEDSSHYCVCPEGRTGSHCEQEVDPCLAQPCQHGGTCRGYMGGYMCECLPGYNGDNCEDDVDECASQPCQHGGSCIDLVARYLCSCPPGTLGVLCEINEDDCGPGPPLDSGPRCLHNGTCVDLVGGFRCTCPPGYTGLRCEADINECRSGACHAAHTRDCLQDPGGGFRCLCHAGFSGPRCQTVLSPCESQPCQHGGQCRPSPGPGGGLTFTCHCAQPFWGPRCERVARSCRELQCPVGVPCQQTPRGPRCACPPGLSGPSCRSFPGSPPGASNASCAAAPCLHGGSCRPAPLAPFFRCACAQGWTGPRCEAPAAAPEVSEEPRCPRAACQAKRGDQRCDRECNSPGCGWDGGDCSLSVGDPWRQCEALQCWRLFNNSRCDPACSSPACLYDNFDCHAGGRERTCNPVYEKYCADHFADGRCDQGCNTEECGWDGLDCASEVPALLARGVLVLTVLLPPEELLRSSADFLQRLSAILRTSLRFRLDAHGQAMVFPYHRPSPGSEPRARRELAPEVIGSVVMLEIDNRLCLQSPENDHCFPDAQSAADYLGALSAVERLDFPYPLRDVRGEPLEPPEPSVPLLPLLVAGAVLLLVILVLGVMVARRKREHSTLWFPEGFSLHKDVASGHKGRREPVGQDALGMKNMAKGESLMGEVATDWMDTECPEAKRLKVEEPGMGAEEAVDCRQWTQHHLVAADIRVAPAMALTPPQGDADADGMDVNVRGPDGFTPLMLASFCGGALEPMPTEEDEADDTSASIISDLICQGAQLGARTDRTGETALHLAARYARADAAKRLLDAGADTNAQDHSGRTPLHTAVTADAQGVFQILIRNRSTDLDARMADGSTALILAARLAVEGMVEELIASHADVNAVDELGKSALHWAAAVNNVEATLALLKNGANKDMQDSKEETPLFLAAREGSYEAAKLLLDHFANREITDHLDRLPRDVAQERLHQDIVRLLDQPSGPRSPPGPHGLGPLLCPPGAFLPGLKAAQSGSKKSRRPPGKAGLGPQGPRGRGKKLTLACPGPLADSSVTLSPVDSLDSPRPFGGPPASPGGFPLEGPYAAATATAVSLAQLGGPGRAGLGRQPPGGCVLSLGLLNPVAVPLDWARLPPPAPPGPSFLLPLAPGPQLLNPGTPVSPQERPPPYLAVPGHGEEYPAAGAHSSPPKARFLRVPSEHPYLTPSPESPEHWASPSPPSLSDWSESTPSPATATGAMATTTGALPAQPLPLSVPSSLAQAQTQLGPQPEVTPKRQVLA

This assay concerns the target human full-length Notch3 with C-terminal FLAG tag, stably expressed on 293 FlpIn (TREx) cells (human) (UniProt Q9UM47). The assay can be described thus: FACS, IgG on 293-N3 cells.

These are yes or no findings as the source states them, for the method shown. Some results given as binding are weak or reduced against the parent protein; the word gives no strength.

B1: FL-SKNAS-C2-514 (antibody, human IgG1, lambda, V domains shown)
VH: EVQLVQSGAEVKEPGESLRISCKASGYDFSNYWIAWVRQMPGKGLEWMGIIYPGDSDTRYSPSFQGQVTISVDRSISTAYLQWSSLKASDTALYYCSRPTYWSTTWGREFDYWGQGTLVTVSS
VL: SYELTQPPSVSVSPGQTATITCSGDALPKKYAYWYQQKSGQAPVLVVYEDSKRPSGIPERFSGSSSGTMATLTISGAQVEDEADYYCYSTDSSGNHWVFGGGTKLTVLG
With B1, the binding entry is “binds”.

B2: A673-C2-110 (antibody, human IgG1, lambda, V domains shown)
VH: QVQLVQSGTEVKKPGASVRVSCKPSADTFTSYYVHWVRQAPGQGLEWMGTINPTGTYTRYAQQFQGRVTVTRDTSTSSVYMELSSLRSEDSAVYYCARDVRPYTAMYSFDNWGRGTTVTVSS
VL: SYVLTQPPSVSVSPGQTATITCSGDALPKQYANWYQQKPGQAPVLMIYKDSDRPSGIPERFSGSSSGTKATLTISGVQAEDEADYYCQSADNSGTNYVFGTGTKLTVLG
With B2, the binding result is recorded as “binds”.
